No constants are given. Whether binding was seen depends on the method and setting. In cells and extracts the contact can be indirect. A result given as binding can be weak or reduced; the word gives no strength.
Biological target: His-tagged IL-1β (IL-1β-His) (UniProt P01584)
Assay: co-IP; anti-His antibody on protein A/G agarose beads; IL1R1 [0.5 μg] and IL-1β-His [0.2 μg] alone or with unlabeled IL-1β [0.2 ng], LN [0.5 μg] or SC [0.5 μg], 30 min; washed in PBS; blot with anti-IL1R1; both purified

Chains of the proteins cited; added tags and fusions are not shown. Lines headed by an entry give the natural chain unless they say otherwise; changes in a name come on top.
UniProt P01584: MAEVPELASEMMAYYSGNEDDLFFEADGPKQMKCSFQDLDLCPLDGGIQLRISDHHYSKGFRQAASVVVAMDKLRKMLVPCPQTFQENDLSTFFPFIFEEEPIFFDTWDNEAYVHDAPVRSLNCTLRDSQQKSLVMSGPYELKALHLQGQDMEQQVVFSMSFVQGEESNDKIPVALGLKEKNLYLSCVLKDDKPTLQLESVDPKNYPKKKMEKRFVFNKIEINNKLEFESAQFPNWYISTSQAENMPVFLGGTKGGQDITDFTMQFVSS

- binding: binds
B1: Link N (LN) (peptide)
peptide: DHLSDNYTLDHDRAIH

Source: article PMC12024905
